Measured values: patent publication US9669003B2, “Use of flavone and flavanone derivatives in preparation of sedative and hypnotic drugs” (priority 2012, dated 2017)
Some results were stated once for a whole list of compounds, not compound by compound. At least one compound was matched to its structure with a doubt left.

Key:
Type in all cases: in vivo
Kunming mice [1] = test: Influence on autonomic activity of normal mice (ZIL-2 mice autonomic activity meter, counts within 10 min); settings: 1 h and 2 h after drug administration; low, middle and high dose (25, 50, 100 mg/kg); P<0.05˜P<0.001, dose-related
Description: (§1) 1.1 Animals for experiments: Kunming mice, weighting 18.9˜22.2 g for females, and 20.2˜23.0 g for males, licensed under SCXK-(Ji) 2007-0003, and provided by The experimental animal centre, Jilin University.
(§2) 1.2 Chemicals for experiments: The flavone derivatives provided in Examples 1-41 and the flavanone derivatives provided in Examples 42-71 are all formulated with 0.5% sodium carboxymethyl cellulose as solutions with required concentrations.
(§3) 1.3 Grouping of animals: 6420 animals are employed in the entire experiments and 2140 of the animals are randomly divided into 214 groups by gender, and the […] include: control group, low dosage group for each experimental drugs (25 mg/kg), medium dosage group for each experimental drugs (50 mg/kg), and high dosage group for each experimental drugs (100 mg/kg). Each group has 10 animals and either female or male constitutes half of the group. The groups are used in behavior observation and voluntary action observation. The other 4280 animals are randomly divided into 214 groups by gender respectively (the grouping way is the same with that described above). Each group has 20 animals and either female or male constitutes half of the group. In each group, 10 animals are used in hypnosis experimentations with pentobarbital sodium doses below the threshold, and the other 10 animals are used hypnosis experimentations with pentobarbital sodium doses at the threshold.
1.4 Experimental instrument and agents: ZIL-2 mice autonomic activity meter, production of Institute of Materia Medica of Chinese Academy of Medical Sciences; pentobarbital sodium, Lot: 100808, 25 g/bottle, Beijing Chemical Reagent Company equipment imported from Germany.
1.5.2 Influence on Autonomic Activity of Normal Mice
After observing the general behavior, in 1 h, 2 h and 24 h after drug administration, respectively, ZIL-2 mice autonomic activity meter is put respectively. Number of autonomic activities of each group of mice is measured within 10 min. Results among groups are compared.
(§4) Number of autonomic activities is detected by leneve Test for homogeneity of variance. If the homogeneity of variance is good (P>0.05), statistical analysis is performed with ANOVA. If ANOVA have statistical significance (P≦0.05), Dunnett's test for multiple comparisons analysis is performed. Number of animals of sleeping mice is applied of ANOVA. Incidence rate of animal asleep is applied of χ2 test. Sleep latency and sleep duration are recorded in min, averaged by group, represented by standard deviation, and undergo statistical analysis using ANOVA.

Kunming mice [2] = test: Influence on hypnosis effect with pentobarbital sodium doses below the threshold (25 mg/kg i.p.); settings: sodium pentobarbital 25 mg/kg i.p. 60 min after drug; observed 30 min; low, middle and high dose; P<0.05˜P<0.001
Description: as §1, §2, §3
1.5.3 Influence on Hypnosis Effect with Mice Pentobarbital Sodium Doses Below the Threshold
(§5) The drug is intragastric administered in mice for single time, 2 animals of each group are given drug per round with the dosing interval of 40 min (±5 min). According to the administration round, in 60 min (±5 min) of each round after the drug administration, the animals were intraperitoneally injected 0.3% sodium pentobarbital 25 mg/kg, respectively. Sleep condition of the animals were observed within 30 min (under sleep determination standard of loss of righting reflex more than 1 min). After animals undergo loss of righting reflex, number of the animals is recorded, to calculate sleep percentage.
as §4

Kunming mice [3] = test: Influence on hypnosis effect with pentobarbital sodium doses at the threshold (50 mg/kg i.p.); settings: sodium pentobarbital 50 mg/kg i.p. 60 min after drug; low, middle and high dose; P<0.05˜P<0.001
Description: as §1, §2, §3
1.5.4 Influence on Hypnosis Effect with Mice Pentobarbital Sodium Doses at the Threshold
as §5, with “50” for “25”, “Time to fall asleep (sleep latency) and sleep duration” for “Sleep condition”, “recorded” for “observed”, “under” for “30 min (under”, “min.” for “min). After animals undergo loss of righting reflex, number of the animals is recorded, to calculate sleep percentage.”
as §4

| SMILES | autonomic activities compared with the control group (Kunming mice [1]) | incidence of sleep compared with the control group (Kunming mice [2]) | time to fall asleep (sleep latency) compared with the control group (Kunming mice [3]) |
| --- | --- | --- | --- |
| COc1ccc(-c2cc(=O)c3c(O)cc(OC)c(OC)c3o2)c(OC)c1OC [Example 9, 5-hydroxyl-7,8,2′,3′,4′-penta methoxyl-flavone] | significantly reduced | increased at different level | reduced at different level |
| COc1ccc(C2CC(=O)c3c(O)c(OC)c(OC)c(OC)c3O2)cc1OC (stereo not drawn) [Example 43, 5-hydroxyl-6,7,8,3′,4′-penta methoxyl-flavanone] | significantly reduced | increased at different level | reduced at different level |
| COc1ccc(C2CC(=O)c3c(OC)c(OC)c(OC)c(OC)c3O2)cc1OC (stereo not drawn) [Example 48, 5,6,7,8,3′,4′-hexamethoxyl-flavanone] | significantly reduced | increased at different level | reduced at different level |
| COc1ccc(C2CC(=O)c3c(OC)cc(OC)c(OC)c3O2)cc1OC (stereo not drawn) [Example 44, 5,7,8,3′,4′-penta methoxyl-flavanone] | significantly reduced | increased at different level | reduced at different level |
| COc1ccc(C2CC(=O)c3c(O)c(OC)c(OC)c(OC)c3O2)cc1 (stereo not drawn) [Example 42, 5-hydroxyl-6,7,8,4′-tetramethoxyl-flavanone] | significantly reduced | increased at different level | reduced at different level |
